PubChem BioAssay AID1224828 | NIAID, 2016
Screen: 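Knock-downs that increase or decrease LPS-induced p65 nuclear translocation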 (primary screen). System: mouse RAW264.7 G9 macrophage reporter cells (GFP-p65, Tnf promoter-mCherry). Reagent: siRNA pool against mouse genes, 100 nM. Timing: 2 days siRNA transfection, then 40 min LPS before fixation. Treatment: LPS (Salmonella minnesota R595) at 10 ng/ml. Detection: 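Imaged p65 nuclear translocation ratio, normalised to the plate median, converted to robust z-scores and averaged across two replicates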. Scale: p65 translocation robust z-score: higher = more nuclear NF-kappaB p65 after LPS than the plate median; nuclear/cytoplasmic p65 ratio: higher = more nuclear NF-kappaB p65. Active means: 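Active if robust z is above 3.3 (negative regulators) or below -1.56, the Tlr4 control median (positive regulators); activity score 50 or more; control wells not called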. Calls: active = hit (p65 shift raised or lowered); inactive = no clear change.
The whole screen tested about 17,000 reagents; below is an unselected part. 762 of them (4.5%) count as active. 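Active calls include both raised and lowered p65 entry, mostly lowered; wells with fewer than 50 cells lack a z-score.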 The raw values are shown without normalisation. Entries without a mark were called inactive.

gene	p65 translocation robust z-score	nuclear/cytoplasmic p65 ratio, rep 1	nuclear/cytoplasmic p65 ratio, rep 2	low cell count flag
Pym1	1.05	1.49	1.7	enough cells to score
Fgf22	-0.77	1.42	1.41	enough cells to score
Gstm5	-0.64	1.37	1.27	enough cells to score
Sgf29	0.13	1.33	1.51	enough cells to score
Ino80b		1.26	1.15	fewer than 50 cells per well; well left out of scoring
Slc25a13	0.61	1.61	1.6	enough cells to score
Arnt2	-0.94	1.5	1.46	enough cells to score
Igfbp1	-0.44	1.32	1.37	enough cells to score
Mmp9	0.71	1.6	1.37	enough cells to score
Mobp	1.68	2.06	1.84	enough cells to score
Cds2	0.46	1.6	1.93	enough cells to score
Rnf113a2		1.28	1.36	fewer than 50 cells per well; well left out of scoring
Gstm3	-1.32	1.6	1.21	enough cells to score
Hivep2	-0.72	1.28	1.3	enough cells to score
Prkar2b	-0.09	1.47	1.36	enough cells to score
Stard6	0.07	1.46	1.21	enough cells to score
Gfm2	-0.04	1.45	1.44	enough cells to score
Vmn1r210	-0.04	1.38	1.17	enough cells to score
Lrg1	-1.67 (active)	1.54	1.22	enough cells to score
Nmbr	2.09	1.81	1.89	enough cells to score
Fpr-rs7	-0.58	1.64	1.26	enough cells to score
Or5t5	-1.32	1.49	1.36	enough cells to score
Nrg3	-0.6	1.56	1.32	enough cells to score
Shbg	0.51	1.58	1.67	enough cells to score
Rpia		1.54	1.32	fewer than 50 cells per well; well left out of scoring
Gja4	-0.07	1.46	1.33	enough cells to score
4930550C14Rik	0.3	1.39	1.34	enough cells to score
Dmac1		1.46	1.23	fewer than 50 cells per well; well left out of scoring
Trib3	-1.52	1.47	1.17	enough cells to score
Il1rapl2	0.08	1.46	1.42	enough cells to score
Magt1	2.07	1.67	1.85	enough cells to score
Rnps1	1.06	1.55	1.34	enough cells to score
Prl3c1	0.79	1.57	1.23	enough cells to score
Add3	-0.52	1.54	1.54	enough cells to score
Gabra3	-0.76	1.15	1.3	enough cells to score
Mapk11	-0.38	1.52	1.42	enough cells to score
Ap3s2	0.14	1.63	1.52	enough cells to score
Cryga	0.07	1.47	1.4	enough cells to score
Tescl		1.16	1.42	fewer than 50 cells per well; well left out of scoring
Thoc1	-0.73	1.49	1.35	enough cells to score
Nutf2	0.55	1.87	1.55	enough cells to score
Cntnap2	1.06	1.62	1.51	enough cells to score
Plcd4	1.14	1.53	1.34	enough cells to score
Oprl1	-0.84	1.53	1.33	enough cells to score
Zmat1	-1.25	1.18	1.63	enough cells to score
Or2c1	0.78	1.51	1.81	enough cells to score
Pum2	-0.18	1.38	1.17	enough cells to score
Ap3d1	-0.25	1.22	1.67	enough cells to score
Proc	-2.08 (active)	1.18	1.16	enough cells to score
Gk	1.66	1.95	1.6	enough cells to score
Or2ak6	0.51	1.74	1.44	enough cells to score
Sec24d	0.32	1.45	1.29	enough cells to score
Mien1	-1.43	1.18	1.37	enough cells to score
Vmn1r64		1.36	1.21	fewer than 50 cells per well; well left out of scoring
Cbs	0.85	1.47	1.49	enough cells to score
Cdh15	1.04	1.63	1.49	enough cells to score
Cpne2	-0.69	1.54	1.6	enough cells to score
Cpap	-0.42	1.54	1.56	enough cells to score
Zbtb8os	0.38	1.55	1.68	enough cells to score
Trim42	0.64	1.55	1.23	enough cells to score
Dld	0.64	1.58	1.45	enough cells to score
Ubap2l	-0.38	1.14	1.26	enough cells to score
Qsox2		1.1	1.07	fewer than 50 cells per well; well left out of scoring
Bcl2l11	0.23	1.58	1.72	enough cells to score
Rasip1	1.91	1.62	1.43	enough cells to score
Slc26a6		1.2	1.29	fewer than 50 cells per well; well left out of scoring
Rhebl1		1.59	1.27	fewer than 50 cells per well; well left out of scoring
Or10aa1	0.54	1.61	1.25	enough cells to score
H2-Q10	0.46	1.39	1.53	enough cells to score
Psmb5	-0.24	1.29	1.24	enough cells to score
Cdk5rap1	2	2.02	1.62	enough cells to score
Sdc4	-0.09	1.47	1.61	enough cells to score
Actbl2		1.18	1.3	fewer than 50 cells per well; well left out of scoring
Or13ae2	0.19	1.63	1.45	enough cells to score
Naca	0.11	1.82	1.59	enough cells to score

Active calls, among the entries above:
gene	p65 translocation robust z-score	nuclear/cytoplasmic p65 ratio, rep 1	nuclear/cytoplasmic p65 ratio, rep 2	low cell count flag
Lrg1	-1.67 (active)	1.54	1.22	enough cells to score
Proc	-2.08 (active)	1.18	1.16	enough cells to score
